Experimental data published in patent US7897169B2, “Ubiquinol-enriched fat-containing foods” (Kaneka Corporation, priority 2002, dated 2011).
For at least one compound, name, drawing or mass did not settle the structure.

Experiment: Storage stability of ubiquinol in edible oils/fats against air oxidation (ubiquinol/ubiquinone ratio by HPLC)
Type: physicochemical
Conditions: after 3 days of storage in the air at 40° C., protected from light; ubiquinol added to oil at final concentration of 6% (or crystals alone)

SMILES: COc1c(O)c(C)c(C/C=C(\C)CC/C=C(\C)CC/C=C(\C)CC/C=C(\C)CC/C=C(\C)CC/C=C(\C)CC/C=C(\C)CC/C=C(\C)CC/C=C(\C)CCC=C(C)C)c(O)c1OC [Crystals, ubiquinol]
- Ubiquinol/ubiquinone ratio: 75.0/25.0
